Record: PubChem BioAssay AID1224828 (NIAID, 2016)
In all, the deposit lists about 17,000 reagents; below is a random part of them. 762 of all reagents (4.5%) count as active. 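Active calls include both raised and lowered p65 entry, mostly lowered; wells with fewer than 50 cells lack a z-score.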 The raw values are shown without normalisation. Unmarked entries are inactive.

Purpose: 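Regulators linking TLR4 signalling to p65 nuclear translocation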 (primary screen)
Cell system: mouse RAW264.7 G9 macrophage reporter cells (GFP-p65, Tnf promoter-mCherry)
Reagent: siRNA pool against mouse genes, 100 nM
Time to read-out: 2 days siRNA transfection, then 40 min LPS before fixation
Treatment: LPS (Salmonella minnesota R595) at 10 ng/ml
Read-out: 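Imaged p65 nuclear translocation ratio, normalised to the plate median, converted to robust z-scores and averaged across two replicates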
Direction: p65 translocation robust z-score: higher = more nuclear NF-kappaB p65 after LPS than the plate median; nuclear/cytoplasmic p65 ratio: higher = more nuclear NF-kappaB p65
Hit rule: 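Active if robust z is above 3.3 (negative regulators) or below -1.56, the Tlr4 control median (positive regulators); activity score 50 or more; control wells not called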
Meaning of the calls: active = hit (p65 shift raised or lowered); inactive = no clear change

The first 6 entries, to show the layout:
| gene | PubChem SID | p65 translocation robust z-score | nuclear/cytoplasmic p65 ratio, rep 1 | nuclear/cytoplasmic p65 ratio, rep 2 | low cell count flag |
| --- | --- | --- | --- | --- | --- |
| Tlcd4 (GeneID 99887) | SID315476195 | -0.64 | 1.52 | 1.65 | enough cells to score |
| Thpo (GeneID 21832) | SID315469710 | 0.34 | 1.56 | 1.58 | enough cells to score |
| Wnt6 (GeneID 22420) | SID315470048 | 0.18 | 1.6 | 1.47 | enough cells to score |
| Gja3 (GeneID 14611) | SID315466905 | -1.48 | 1.3 | 1.12 | enough cells to score |
| Bmp2 (GeneID 12156) | SID315465649 | 0.27 | 1.7 | 1.61 | enough cells to score |
| AI182371 (GeneID 98870) | SID315476151 | -0.22 | 1.67 | 1.55 | enough cells to score |

Results, repeating the preview:
| gene | PubChem SID | p65 translocation robust z-score | nuclear/cytoplasmic p65 ratio, rep 1 | nuclear/cytoplasmic p65 ratio, rep 2 | low cell count flag |
| --- | --- | --- | --- | --- | --- |
| Tlcd4 (GeneID 99887) | SID315476195 | -0.64 | 1.52 | 1.65 | enough cells to score |
| Thpo (GeneID 21832) | SID315469710 | 0.34 | 1.56 | 1.58 | enough cells to score |
| Wnt6 (GeneID 22420) | SID315470048 | 0.18 | 1.6 | 1.47 | enough cells to score |
| Gja3 (GeneID 14611) | SID315466905 | -1.48 | 1.3 | 1.12 | enough cells to score |
| Bmp2 (GeneID 12156) | SID315465649 | 0.27 | 1.7 | 1.61 | enough cells to score |
| AI182371 (GeneID 98870) | SID315476151 | -0.22 | 1.67 | 1.55 | enough cells to score |
| Sema6c (GeneID 20360) | SID315469185 | – | 1.78 | 1.27 | fewer than 50 cells per well; well left out of scoring |
| Pkd2 (GeneID 18764) | SID315468549 | 0.31 | 1.49 | 1.49 | enough cells to score |
| Or4c3d (GeneID 57272) | SID315471746 | -0.39 | 1.59 | 1.34 | enough cells to score |
| Psma5 (GeneID 26442) | SID315470416 | – | 1.13 | 0.951 | fewer than 50 cells per well; well left out of scoring |
| Ppp1r15a (GeneID 17872) | SID315468050 | 2.06 | 1.67 | 1.65 | enough cells to score |
| Gm9975 (GeneID 327988) | SID315481458 | 0.79 | 1.73 | 1.89 | enough cells to score |
| Prkdc (GeneID 19090) | SID315468693 | 0.14 | 1.71 | 1.57 | enough cells to score |
| Vmn2r30 (GeneID 22306) | SID315469971 | -0.92 | 1.25 | 1.14 | enough cells to score |
| Zfp3 (GeneID 193043) | SID315477430 | 0.92 | 1.79 | 1.78 | enough cells to score |
| Taar8b (GeneID 382348) | SID315481827 | 1.05 | 1.62 | 1.77 | enough cells to score |
| Cxxc5 (GeneID 67393) | SID315472998 | 0.34 | 1.61 | 1.86 | enough cells to score |
| Nudt8 (GeneID 66387) | SID315472405 | 1.14 | 1.86 | 1.72 | enough cells to score |
| Grp (GeneID 225642) | SID315478429 | 0.36 | 1.42 | 1.48 | enough cells to score |
| Wdr4 (GeneID 57773) | SID315471818 | -1 | 1.46 | 1.37 | enough cells to score |
| Amelx (GeneID 11704) | SID315465404 | -0.28 | 1.55 | 1.6 | enough cells to score |
| Ccdc60 (GeneID 269693) | SID315480879 | – | 1.26 | 1.43 | fewer than 50 cells per well; well left out of scoring |
| Akap4 (GeneID 11643) | SID315465372 | 1.51 | 1.99 | 1.53 | enough cells to score |
| Or5d37 (GeneID 258634) | SID315480291 | -0.99 | 1.51 | 1.43 | enough cells to score |
| Def8 (GeneID 23854) | SID315470200 | -1.43 | 1.3 | 1.41 | enough cells to score |
| Anxa13 (GeneID 69787) | SID315473900 | 0.49 | 1.72 | 1.67 | enough cells to score |
| Gns (GeneID 75612) | SID315475161 | 1.92 | 1.67 | 1.64 | enough cells to score |
| Or10j3b (GeneID 258881) | SID315480510 | -1.26 | 1.38 | 1.29 | enough cells to score |
| Kdm5b (GeneID 75605) | SID315475158 | -0.4 | 1.39 | 1.35 | enough cells to score |
| Ly6m (GeneID 67038) | SID315472792 | -0.91 | 1.19 | 1.25 | enough cells to score |
| Lce1f (GeneID 67828) | SID315473243 | 0.17 | 1.53 | 1.57 | enough cells to score |
| Nf2 (GeneID 18016) | SID315468140 | 0 | 1.37 | 1.41 | enough cells to score |
| Csnk2a2ip (GeneID 224291) | SID315478336 | 2.03 | 1.86 | 2.16 | enough cells to score |
| Ankrd48 (GeneID 76389) | SID315475300 | – | 1.55 | 1.56 | fewer than 50 cells per well; well left out of scoring |
| Vmn2r89 (GeneID 22301) | SID315469967 | – | 1.44 | 1.29 | fewer than 50 cells per well; well left out of scoring |
| Vmn2r89 (GeneID 22301) | SID315469968 | 0.83 | 1.58 | 1.32 | enough cells to score |
| Ccnb2 (GeneID 12442) | SID315465813 | 0.4 | 1.58 | 1.43 | enough cells to score |
| Myo1c (GeneID 17913) | SID315468074 | 0.2 | 1.86 | 1.58 | enough cells to score |
| Ercc6l (GeneID 236930) | SID315479319 | 0.92 | 1.8 | 1.9 | enough cells to score |
| S100a1 (GeneID 20193) | SID315469075 | 2.96 | 1.84 | 2.03 | enough cells to score |
| Rnf20 (GeneID 109331) | SID315476824 | – | 1.23 | 1.1 | fewer than 50 cells per well; well left out of scoring |
| Dele1 (GeneID 66839) | SID315472665 | 0.42 | 1.49 | 1.54 | enough cells to score |
| Zfhx3 (GeneID 11906) | SID315465531 | 0.17 | 1.65 | 1.63 | enough cells to score |
| Wnk1 (GeneID 232341) | SID315478980 | 0.64 | 1.74 | 1.5 | enough cells to score |
| Saa4 (GeneID 20211) | SID315469090 | -1.19 | 1.23 | 1.09 | enough cells to score |
| Tdrd3 (GeneID 219249) | SID315478249 | – | 1.25 | 1.2 | fewer than 50 cells per well; well left out of scoring |
| Rfx4 (GeneID 71137) | SID315474190 | -0.52 | 1.51 | 1.38 | enough cells to score |
| Prkcq (GeneID 18761) | SID315468546 | -0.44 | 1.65 | 1.3 | enough cells to score |
| Vsx2 (GeneID 12677) | SID315465969 | 0.47 | 1.72 | 1.8 | enough cells to score |
| Glyr1 (GeneID 74022) | SID315474816 | – | 1.27 | 1.21 | fewer than 50 cells per well; well left out of scoring |
| Fancl (GeneID 67030) | SID315472788 | 1.22 | 1.76 | 1.43 | enough cells to score |
| Alas2 (GeneID 11656) | SID315465379 | 0.06 | 1.66 | 1.6 | enough cells to score |
| Cdh6 (GeneID 12563) | SID315465904 | 0.92 | 1.56 | 1.53 | enough cells to score |
| Klhl11 (GeneID 217194) | SID315478086 | 1.29 | 1.75 | 1.59 | enough cells to score |
| Ccl28 (GeneID 56838) | SID315471696 | -0.69 | 1.41 | 1.25 | enough cells to score |
| Tas2r102 (GeneID 387339) | SID315481852 | – | 1.08 | 1.3 | fewer than 50 cells per well; well left out of scoring |
| Bcl2l10 (GeneID 12049) | SID315465616 | -0.81 | 1.46 | 1.53 | enough cells to score |
| Olfr100 (GeneID 404307) | SID315481925 | -1.87 (active) | 1.4 | 1.26 | enough cells to score |
| Mmp25 (GeneID 240047) | SID315479475 | -0.37 | 1.4 | 1.29 | enough cells to score |
